Patent US5916876A, “Peptide inhibitors of leukocyte adhesion” (Centocor, Inc., priority 1994, dated 1999)
At least one peptide structure holds a part that was inferred or is arguable (an end, a ring closure or a residue). Residues, ends and D or L forms follow the SMILES beside them.

Molecular target: T1, human P-selectin (Homo sapiens, UniProt P16109)
T1 construct: from tissue; host or cells: outdated human platelet packs from a blood bank
T1 sequence (P16109 42-830): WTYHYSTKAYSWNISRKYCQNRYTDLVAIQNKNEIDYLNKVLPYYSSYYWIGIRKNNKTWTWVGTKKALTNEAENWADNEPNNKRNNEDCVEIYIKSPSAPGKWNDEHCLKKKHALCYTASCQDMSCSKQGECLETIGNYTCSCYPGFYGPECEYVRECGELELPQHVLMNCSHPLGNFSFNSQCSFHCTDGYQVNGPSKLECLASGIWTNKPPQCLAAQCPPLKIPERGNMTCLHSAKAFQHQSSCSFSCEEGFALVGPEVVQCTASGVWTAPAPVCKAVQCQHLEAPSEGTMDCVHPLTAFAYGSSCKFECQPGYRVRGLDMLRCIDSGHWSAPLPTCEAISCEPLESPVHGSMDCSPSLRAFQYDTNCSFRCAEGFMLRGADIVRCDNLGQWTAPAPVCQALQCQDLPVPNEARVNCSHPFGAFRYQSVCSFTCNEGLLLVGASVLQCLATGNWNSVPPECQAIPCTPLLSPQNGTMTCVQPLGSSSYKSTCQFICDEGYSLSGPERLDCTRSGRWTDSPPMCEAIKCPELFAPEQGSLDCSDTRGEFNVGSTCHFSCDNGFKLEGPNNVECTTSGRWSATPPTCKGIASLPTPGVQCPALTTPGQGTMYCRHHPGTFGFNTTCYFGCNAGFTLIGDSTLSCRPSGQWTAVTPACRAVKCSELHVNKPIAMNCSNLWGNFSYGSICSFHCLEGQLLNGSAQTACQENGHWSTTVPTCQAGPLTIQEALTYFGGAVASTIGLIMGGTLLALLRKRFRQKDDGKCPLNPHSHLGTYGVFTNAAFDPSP
Test: Neutrophil adhesion to purified P-selectin immobilized on plastic wells (myeloperoxidase readout)
Format: cell-based
Settings: FIG. 1 legend, result in words
From the text: Peptides can be screened for their ability to inhibit adhesion to cells, for example, neutrophil adhesion to purified P-selectin immobilized on plastic wells, using the assay described by Geng, et al., Nature 343, 757-760 (1990).
Human neutrophils are isolated from heparinized whole blood by density gradient centrifugation on Mono-Poly resolving media, Flow Laboratories. Neutrophil suspensions are greater than 98% pure and greater than 95% viable by trypan blue exclusion. For adhesion assays, neutrophils are suspended at a concentration of 2×10^6 cells/mL in Hanks' balanced salt solution containing 1.26 mM Ca^2+ and 0.81 mM Mg^2+ (HBSS, Gibco) with […] human serum albumin (HBSS/HSA). Adhesion assays are conducted in triplicate in 96-well microtiter plates, Corning, incubated at 4° C. overnight with 50 microliters of various protein solutions.
P-selectin is isolated from human platelet lysates by immunoaffinity chromatography on antibody S12-Sepharose™ and ion-exchange chromatography on a Mono-Q™ column (FLPC, Pharmacia Fine Chemicals), as follows. […]
Bound P-selectin is eluted from the S12 Affigel with 100 mL of 80% ethylene glycol, 1 mM MES pH 6.0, 0.01% Lubrol PX. Peak fractions with absorbance at 280 nm are pooled. […]

SMILES	ability to inhibit the binding of human neutrophils to human P-selectin (FIG. 1)
CC[C@H](C)[C@H](NC(=O)[C@H](CO)NC(=O)[C@H](CC(N)=O)NC(=O)[C@H](CC(C)C)NC(=O)[C@H](Cc1ccc(O)cc1)NC(=O)[C@@H](N)CCC(=O)O)C(=O)N[C@@H](CC(C)C)C(=O)N[C@@H](CO)C(=O)N[C@@H](Cc1ccc(O)cc1)C(=O)N[C@@H](CO)C(=O)N1CCC[C@H]1C(=O)N[C@@H](CO)C(=O)N[C@@H](Cc1ccc(O)cc1)C(=O)N[C@@H](Cc1ccc(O)cc1)C(=O)N[C@@H](Cc1c[nH]c2ccccc12)C(N)=O [SEQ ID NO: 23, Glu--Tyr--Leu--Asn--Ser--Ile--Leu--Ser--Tyr--Ser--Pro--Ser--Tyr--Tyr--Trp-NH2] (H-EYLNSILSYSPSYYW-NH2)	dose-dependent manner
CC(C)C[C@H](NC(=O)[C@H](Cc1ccc(O)cc1)NC(=O)[C@@H](N)CC(=O)O)C(=O)N[C@@H](CC(N)=O)C(=O)N[C@@H](CCCCN)C(=O)N[C@H](C(=O)N[C@@H](CC(C)C)C(=O)N1CCC[C@H]1C(=O)N[C@@H](Cc1ccc(O)cc1)C(=O)N[C@@H](Cc1ccc(O)cc1)C(=O)N[C@@H](CO)C(=O)N[C@@H](CO)C(=O)N[C@@H](Cc1ccc(O)cc1)C(=O)N[C@@H](Cc1ccc(O)cc1)C(=O)N[C@H](C(N)=O)C(C)C)C(C)C [SEQ ID NO: 1, Asp--Tyr--Leu--Asn--Lys--Val--Leu--Pro--Tyr--Tyr--Ser--Ser--Tyr--Tyr--Val-NH2] (H-DYLNKVLPYYSSYYV-NH2)	dose-dependent manner
